Test results: patent US9737515B2, “Compositions and methods for inhibiting tumor growth” (Consejo Nacional De Investigaciones Cientificas Y Tecnicas …, priority 2015, dated 2017)
For at least one compound, name, drawing or mass did not settle the structure.

Columns and labels:
[1] = test system: MCF-7 Tet-Off empty vector cells; experiment: BrdU incorporation cell proliferation assay in MCF-7 Tet-Off empty vector cells; format: cell-based, human; settings: rapamycin 10 nM, rosiglitazone 75 μM, 96 h
Procedure: MCF-7 Tet-Off empty vector and MCF-7 Tet-Off/ACSL4 cells were plated at a density of 4000 cells/well in 96-well plates with 10% FBS-supplemented D-MEM medium and allowed to adhere overnight at 37° C. in a humidified, 5% CO2 atmosphere. The medium was then changed to serum-free medium. After 24 h, the cells were switched to 10% FBS-supplemented D-MEM medium and incubated with rapamycin (10 nM) and/or rosiglitazone (75 μM) for 96 h. Subsequently, cell proliferation was measured by the bromo-deoxyuridine (BrdU) incorporation assay.

MCF-7 Tet-Off/ACSL4 = settings: MCF-7 Tet-Off system, previously shown; cited from earlier work
[2] = test system: ERα and mTOR-related protein levels; experiment: Western blot of ERα and mTOR-related protein levels in MCF-7 Tet-Off/ACSL4 cells; format: cell-based, human; settings: rosiglitazone 75 μM, 24 h, FIG. 6B

| Structure (SMILES) | effect on proliferation (in words) [1] | minimal dose for exerting significant inhibitory effects (MCF-7 Tet-Off/ACSL4) | ERα expression [2] | mTOR signal (p-S6, p-GSK3αβ, p-AKT (Ser473), p-p70S6K) [2] |
| --- | --- | --- | --- | --- |
| CO[C@H]1C[C@@H]2CC[C@@H](C)[C@@](O)(O2)C(=O)C(=O)N2CCCC[C@H]2C(=O)O[C@H]([C@H](C)C[C@@H]2CC[C@@H](O)[C@H](OC)C2)CC(=O)[C@H](C)/C=C(\C)[C@@H](O)[C@@H](OC)C(=O)[C@H](C)C[C@H](C)/C=C/C=C/C=C/1C [Rapamycin] | very little effect | 100 nM | – | – |
| CN(CCOc1ccc(CC2SC(=O)NC2=O)cc1)c1ccccn1 (stereo not shown) [Rosiglitazone] | – | – | increased ERα expression | decreased the mTOR signal |
